No constants are given. Whether binding was seen depends on the method and setting. Binding seen in cells or lysates may run through a third protein. Here binding means that the protein was enriched with, or labelled near, the bait; the list need not be complete. Tags and fused reporters may be left off the sequences shown.
Target: T1, Myc-PHGDH, ectopically expressed in HeLa cells (UniProt O43175)
T1 sequence: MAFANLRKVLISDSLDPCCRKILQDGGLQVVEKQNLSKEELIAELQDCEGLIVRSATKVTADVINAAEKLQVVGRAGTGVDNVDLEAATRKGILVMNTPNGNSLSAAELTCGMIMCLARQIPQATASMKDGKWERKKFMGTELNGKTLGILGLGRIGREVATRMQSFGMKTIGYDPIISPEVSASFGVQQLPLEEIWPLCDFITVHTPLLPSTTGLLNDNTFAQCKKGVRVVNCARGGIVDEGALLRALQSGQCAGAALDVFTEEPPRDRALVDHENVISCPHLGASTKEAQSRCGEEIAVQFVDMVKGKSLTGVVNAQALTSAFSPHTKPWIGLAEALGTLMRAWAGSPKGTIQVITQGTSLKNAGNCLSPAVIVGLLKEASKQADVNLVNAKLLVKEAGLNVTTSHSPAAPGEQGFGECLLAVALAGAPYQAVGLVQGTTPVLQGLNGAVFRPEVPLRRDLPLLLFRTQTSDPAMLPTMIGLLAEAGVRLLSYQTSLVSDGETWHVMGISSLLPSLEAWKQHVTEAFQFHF
Test: affinity purification with mass spectrometry; Myc-PHGDH and FLAG-PKM2 immunoprecipitated from HeLa cells with anti-Myc and anti-FLAG antibodies as the bait; LC-MS

Amino acid sequences for entries named in this document (tags omitted).
UniProt P14618: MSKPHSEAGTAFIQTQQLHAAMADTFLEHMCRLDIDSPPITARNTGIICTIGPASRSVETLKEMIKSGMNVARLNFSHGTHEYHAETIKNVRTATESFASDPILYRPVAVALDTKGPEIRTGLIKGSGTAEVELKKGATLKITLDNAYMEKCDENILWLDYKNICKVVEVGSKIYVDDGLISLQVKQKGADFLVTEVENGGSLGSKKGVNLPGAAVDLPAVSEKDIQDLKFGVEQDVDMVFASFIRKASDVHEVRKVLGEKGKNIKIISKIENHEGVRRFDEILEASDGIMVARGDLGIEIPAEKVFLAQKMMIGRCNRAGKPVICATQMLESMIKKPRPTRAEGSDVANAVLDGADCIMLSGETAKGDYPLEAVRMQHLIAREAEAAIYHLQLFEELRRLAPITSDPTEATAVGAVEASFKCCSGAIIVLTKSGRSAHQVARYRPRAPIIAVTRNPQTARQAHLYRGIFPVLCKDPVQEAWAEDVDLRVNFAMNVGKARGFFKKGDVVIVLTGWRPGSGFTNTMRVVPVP

For “pyruvate kinase M2 (PKM2), found with Myc-PHGDH from HeLa cells (from UniProt P14618 1-531)”, the binding was “binds”.
